Assay results from patent US20180086804A1 (COMMISSARIAT A L ENERGIE ATOMIQUE ET AUX ENERGIES …, published 2018).

Assays:
Experiment in all cases: competition ELISA
[1] = target: T1, HLA-DR13 (HLA-DRB1*13:01) (human)
T1 construct: mature; purified from homozygous EBV-transformed lymphoblastoid cells with antibody L243

[2] = target: T2, HLA-DR11 (HLA-DRB1*11:01) (human)
T2 construct: mature; purified from homozygous EBV-transformed lymphoblastoid cells with antibody L243

HLA-DR3 (HLA-DRB1*03:01) = target: T3, HLA-DR3 (HLA-DRB1*03:01) (human)
T3 construct: mature; purified from homozygous EBV-transformed lymphoblastoid cells with antibody L243

HLA-DR4 (HLA-DRB1*04:01) = target: T4, HLA-DR4 (HLA-DRB1*04:01) (human)
T4 construct: mature; purified from homozygous EBV-transformed lymphoblastoid cells with antibody L243

HLA-DR1 (HLA-DRB1*01:01) = target: T5, HLA-DR1 (HLA-DRB1*01:01) (human)
T5 construct: mature; class II HLA molecule purified from homozygous EBV-transformed lymphoblastoid cells with antibody L243

[3] = target: T6, HLA-DRB3 (HLA-DRB3*01:01) (human)
T6 construct: mature; purified from homozygous EBV-transformed lymphoblastoid cells with antibody L243

[4] = target: T7, HLA-DRB5 (HLA-DRB5*01:01) (human)
T7 construct: mature; purified from homozygous EBV-transformed lymphoblastoid cells with antibody L243

HLA-DR7 (HLA-DRB1*07:01) = target: T8, HLA-DR7 (HLA-DRB1*07:01) (human)
T8 construct: mature; purified from homozygous EBV-transformed lymphoblastoid cells with antibody L243

[5] = target: T9, HLA-DR15 (HLA-DRB1*15:01) (human)
T9 construct: mature; purified from homozygous EBV-transformed lymphoblastoid cells with antibody L243

[6] = target: T10, HLA-DRB4 (HLA-DRB4*01:01) (human)
T10 construct: mature; purified from homozygous EBV-transformed lymphoblastoid cells with antibody L243

Row | Binder | binding [1] | binding [2] | binding (HLA-DR3 (HLA-DRB1*03:01)) | binding (HLA-DR4 (HLA-DRB1*04:01)) | binding [3] | binding [4] | binding (HLA-DR7 (HLA-DRB1*07:01)) | binding [5] | binding [6] | binding (HLA-DR1 (HLA-DRB1*01:01))
1 | AKMPMKKEAKPSATG (C-terminal amide) [CCNB1 58-72] | – | – | no binding (tested: rel. affinity >825) | no binding (tested: rel. affinity >1771) | no binding (tested: rel. affinity >362) | no binding (tested: rel. affinity >3467) | no binding (tested: rel. affinity >1036) | no binding (tested: rel. affinity >329) | no binding (tested: rel. affinity >961) | no binding (tested: rel. affinity >11262)
2 | TALGDIGNKVSEQLQ (C-terminal amide) [CCNB1 43-57] | – | no binding (tested: rel. affinity >1949) | no binding (tested: rel. affinity >825) | no binding (tested: rel. affinity >1771) | no binding (tested: rel. affinity >362) | no binding (tested: rel. affinity >3467) | no binding (tested: rel. affinity >1036) | – | no binding (tested: rel. affinity >961) | no binding (tested: rel. affinity >11262)
3 | EKLSPEPILVDTASP (C-terminal amide) [CCNB1 113-127] | no binding (tested: rel. affinity >1949) | no binding (tested: rel. affinity >1949) | – | – | – | no binding (tested: rel. affinity >3467) | no binding (tested: rel. affinity >1036) | no binding (tested: rel. affinity >329) | – | –
4 | SKINAENKAKINMAG (C-terminal amide) [CCNB1 9-23] | – | – | – | no binding (tested: rel. affinity >1771) | no binding (tested: rel. affinity >362) | – | no binding (tested: rel. affinity >1036) | no binding (tested: rel. affinity >329) | no binding (tested: rel. affinity >961) | no binding (tested: rel. affinity >11262)
5 | EPILVDTASPSPMET (C-terminal amide) [CCNB1 118-132] | no binding (tested: rel. affinity >1949) | no binding (tested: rel. affinity >1949) | – | – | – | no binding (tested: rel. affinity >3467) | no binding (tested: rel. affinity >1036) | – | no binding (tested: rel. affinity >961) | –
6 | EPVKEEKLSPEPILV (C-terminal amide) [CCNB1 108-122] | no binding (tested: rel. affinity >1949) | no binding (tested: rel. affinity >1949) | no binding (tested: rel. affinity >825) | no binding (tested: rel. affinity >1771) | no binding (tested: rel. affinity >362) | no binding (tested: rel. affinity >3467) | no binding (tested: rel. affinity >1036) | no binding (tested: rel. affinity >329) | no binding (tested: rel. affinity >961) | –
7 | SPMETSGCAPAEEDL (C-terminal amide) [CCNB1 128-142] | no binding (tested: rel. affinity >1949) | no binding (tested: rel. affinity >1949) | no binding (tested: rel. affinity >825) | no binding (tested: rel. affinity >1771) | no binding (tested: rel. affinity >362) | no binding (tested: rel. affinity >3467) | no binding (tested: rel. affinity >1036) | no binding (tested: rel. affinity >329) | no binding (tested: rel. affinity >961) | –
8 | NKVSEQLQAKMPMKK (C-terminal amide) [CCNB1 50-64] | – | – | no binding (tested: rel. affinity >825) | no binding (tested: rel. affinity >1771) | no binding (tested: rel. affinity >362) | – | no binding (tested: rel. affinity >1036) | no binding (tested: rel. affinity >329) | no binding (tested: rel. affinity >961) | no binding (tested: rel. affinity >11262)
9 | PMLVPVPVSEPVPEP (C-terminal amide) [CCNB1 87-101] | no binding (tested: rel. affinity >1949) | no binding (tested: rel. affinity >1949) | no binding (tested: rel. affinity >825) | – | no binding (tested: rel. affinity >362) | no binding (tested: rel. affinity >3467) | – | – | – | –
10 | KKLPKPLEKVPMLVP (C-terminal amide) [CCNB1 77-91] | no binding (tested: rel. affinity >1949) | – | no binding (tested: rel. affinity >825) | no binding (tested: rel. affinity >1771) | no binding (tested: rel. affinity >362) | no binding (tested: rel. affinity >3467) | no binding (tested: rel. affinity >1036) | no binding (tested: rel. affinity >329) | – | no binding (tested: rel. affinity >11262)

Now from value to binder, other results behind:

Row | binding [1] | binding [2] | binding (HLA-DR3 (HLA-DRB1*03:01)) | binding (HLA-DR4 (HLA-DRB1*04:01)) | binding [3] | binding [4] | binding (HLA-DR7 (HLA-DRB1*07:01)) | binding [5] | binding [6] | Binder | binding (HLA-DR1 (HLA-DRB1*01:01))
11 | no binding (tested: rel. affinity >1949) | no binding (tested: rel. affinity >1949) | no binding (tested: rel. affinity >825) | – | – | – | – | – | – | PNLCSEYVKDIYAYL (C-terminal amide) [CCNB1 164-178] | –
12 | – | no binding (tested: rel. affinity >1949) | no binding (tested: rel. affinity >825) | no binding (tested: rel. affinity >1771) | no binding (tested: rel. affinity >362) | – | – | no binding (tested: rel. affinity >329) | no binding (tested: rel. affinity >961) | RQLEEEQAVRPKYLL (C-terminal amide) [CCNB1 179-193] | –
13 | no binding (tested: rel. affinity >1949) | no binding (tested: rel. affinity >1949) | no binding (tested: rel. affinity >825) | – | no binding (tested: rel. affinity >362) | no binding (tested: rel. affinity >3467) | no binding (tested: rel. affinity >1036) | – | no binding (tested: rel. affinity >961) | SDVILAVNDVDAEDG (C-terminal amide) [CCNB1 147-161] | no binding (tested: rel. affinity >11262)
14 | no binding (tested: rel. affinity >1949) | – | no binding (tested: rel. affinity >825) | no binding (tested: rel. affinity >1771) | no binding (tested: rel. affinity >362) | no binding (tested: rel. affinity >3467) | no binding (tested: rel. affinity >1036) | – | no binding (tested: rel. affinity >961) | GAFCLALKILDNGEW (C-terminal amide) [CCNB1 347-361] | no binding (tested: rel. affinity >11262)
15 | no binding (tested: rel. affinity >1949) | – | no binding (tested: rel. affinity >825) | – | no binding (tested: rel. affinity >362) | – | no binding (tested: rel. affinity >1036) | no binding (tested: rel. affinity >329) | no binding (tested: rel. affinity >961) | DRFMQNNCVPKKMLQ (C-terminal amide) [CCNB1 231-245] | –
16 | no binding (tested: rel. affinity >1949) | no binding (tested: rel. affinity >1949) | no binding (tested: rel. affinity >825) | no binding (tested: rel. affinity >1771) | no binding (tested: rel. affinity >362) | no binding (tested: rel. affinity >3467) | – | – | no binding (tested: rel. affinity >961) | HFPPSQIAAGAFCLA (C-terminal amide) [CCNB1 338-352] | –
17 | no binding (tested: rel. affinity >1949) | no binding (tested: rel. affinity >1949) | – | – | no binding (tested: rel. affinity >362) | no binding (tested: rel. affinity >3467) | no binding (tested: rel. affinity >1036) | – | no binding (tested: rel. affinity >961) | EDLCQAFSDVILAVN (C-terminal amide) [CCNB1 140-154] | no binding (tested: rel. affinity >11262)
18 | – | – | – | no binding (tested: rel. affinity >1771) | no binding (tested: rel. affinity >362) | – | no binding (tested: rel. affinity >1036) | no binding (tested: rel. affinity >329) | no binding (tested: rel. affinity >961) | SKIGEVDVEQHTLAK (C-terminal amide) [CCNB1 310-324] | no binding (tested: rel. affinity >11262)

Results are given in words; binding and its absence hold for the method and conditions named.
